Reference: article PMC7392006
Substitutions are numbered along the chain they refer to. No constants are given. Whether binding was seen depends on the method and setting. Binding seen in cells or lysates may run through a third protein. Some results given as binding are weak or reduced against the parent protein; the word gives no strength.

Columns and labels:
Assay in all cases: co-IP; FLAG- or MYC-tagged proteins and domains expressed in HEK293T (293T) cells, transfected for 48 hours
[1] = molecular target: T1, JMJD2D, expressed in HEK293T (UniProt Q6B0I6)
T1 sequence: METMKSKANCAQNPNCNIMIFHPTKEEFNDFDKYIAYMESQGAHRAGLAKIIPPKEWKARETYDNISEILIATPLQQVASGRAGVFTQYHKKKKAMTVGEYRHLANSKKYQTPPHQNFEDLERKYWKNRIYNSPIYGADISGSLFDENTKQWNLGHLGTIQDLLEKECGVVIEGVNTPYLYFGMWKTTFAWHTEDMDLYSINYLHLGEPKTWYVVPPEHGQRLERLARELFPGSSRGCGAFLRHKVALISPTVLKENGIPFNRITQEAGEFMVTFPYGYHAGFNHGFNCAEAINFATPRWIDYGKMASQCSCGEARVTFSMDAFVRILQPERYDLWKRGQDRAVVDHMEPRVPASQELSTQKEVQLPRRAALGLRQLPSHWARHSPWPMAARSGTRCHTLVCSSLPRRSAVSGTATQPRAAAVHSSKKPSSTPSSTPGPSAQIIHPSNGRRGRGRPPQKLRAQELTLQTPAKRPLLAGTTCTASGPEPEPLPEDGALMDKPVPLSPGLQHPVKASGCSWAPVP

[2] = molecular target: T2, JMJD2D-S200M (UniProt Q6B0I6)
T2 sequence: T1 sequence with S200M

[3] = molecular target: T3, JMJD2D C-terminal domain (amino acids 313-523) (UniProt Q6B0I6)
T3 sequence: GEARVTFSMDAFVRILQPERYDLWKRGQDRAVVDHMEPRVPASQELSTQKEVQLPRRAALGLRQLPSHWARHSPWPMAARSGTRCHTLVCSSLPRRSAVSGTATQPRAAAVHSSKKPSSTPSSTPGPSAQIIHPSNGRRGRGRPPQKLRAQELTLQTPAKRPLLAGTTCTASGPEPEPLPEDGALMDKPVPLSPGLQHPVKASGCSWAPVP

Substance	binding [1]	binding [2]	binding [3]
p53 DNA binding domain (DBD, amino acids 101-300) (from UniProt P04637 101-300) (domain or fragment)	binds	–	–
p53, expressed in HEK293T (from UniProt P04637 1-393)	–	binds	binds
